Measurements reported in PubChem BioAssay AID1671195 (Yale University, 2021)

Test: 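Knockdowns that increase or decrease uptake of fluorescent LDL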 (primary screen)
Cell system: human Huh7 hepatoma cells
Reagents: siRNA pool against human genes, 18 nM
Time to read-out: about 2 to 2.5 days of knockdown, then 8 h LDL uptake
Challenge: DiI-labelled LDL at 30 µg/ml for 8 h, in lipoprotein-deficient serum medium
Measured: 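Per-cell DiI-LDL intensity by automated imaging; well means scaled to the plate median and given as a robust z-score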
Reading the numbers: robust z-score: higher = more LDL uptake after knockdown
Hit rule: 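Active when two or more replicates show a robust z-score above 2 or below -2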
In all, the deposit lists about 22,000 reagents; below is an unselected part. About 1,510 of all reagents (6.9%) were called active. 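Active includes knockdowns raising or lowering LDL uptake; positive z-scores mean more uptake, negative mean less.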 The numbers tell different reagents against one gene apart.

gene symbol	reagent	robust z-score, replicate 1	robust z-score, replicate 2	robust z-score, replicate 3	outcome
LOC441576 (retired record)	1	0.384	0.0203	0.149	inactive
CCDC106	1	-1.69	-0.617	-2.56	inactive
LOC390625 (retired record)	1	-1.01	-0.798	-0.802	inactive
CALR4P	1	0.474	0.762	1.28	inactive
PTGFR	1	-0.644	-0.774	-0.56	inactive
LOC440839 (retired record)	1	-4.05	-0.401	-0.691	inactive
OXER1	1	-0.811	-0.701	-0.783	inactive
PDE3A	1	-1.71	-0.551	-1.15	inactive
FAM110D	1	-0.0702	-0.476	-0.585	inactive
SCARB1	1	-1.13	-0.513	-0.695	inactive
BRAP	1	1.92	-0.158	0.51	inactive
ZNF432	1	-1.12	-1.27	-1.28	inactive
MRPS14	1	0.54	0.524	1	inactive
ASIC3	1	-1.53	-1.57	-1.57	inactive
CASP1P2	1	0.602	1.03	0.482	inactive
NTNG1	1	-0.604	-0.252	-0.409	inactive
TMEM25	1	-1.61	-0.888	-0.995	inactive
TMEM74B	1	0.543	0.809	0.0282	inactive
TOMM22P5	1	-0.269	-0.159	-0.296	inactive
REEP6	1	-1.22	-0.504	-0.139	inactive
LOC389908 (retired record)	1	0.0493	0.401	0.233	inactive
RYR3	1	0.253	0.251	0.0772	inactive
COCH	1	0.526	0.374	-0.392	inactive
INO80C	1	-1.71	-1.49	-1.44	inactive
KHDC1	1	0.936	0.83	0.446	inactive
CCDC141	1	0.397	0.39	0.925	inactive
CCDC141	2	-1.16	-1.48	-1.51	inactive
VPREB1	1	-0.308	-0.796	-0.868	inactive
LOC389669 (retired record)	1	0.149	0.863	0.738	inactive
CPXM2	1	-1.09	-1.57	-1.05	inactive
PRECSIT	1	0.03	-0.182	0.251	inactive
CNGA2	1	-0.652	0.04	0.0322	inactive
IVNS1ABP	1	0.0778	-0.635	1.57	inactive
TXNDC8	1	-0.537	-0.921	-1.17	inactive
OR10R2	1	-0.217	-0.643	-0.282	inactive
RABL2B	1	0.462	0.817	-0.185	inactive
RPS6KA5	1	-0.221	-0.342	-0.704	inactive
FXYD3	1	-1.06	-0.0615	-1.68	inactive
TSHR	1	-0.0538	0.42	-0.839	inactive
SMIM3	1	4.33	3.37	4.57	active
SH3BGR	1	-0.175	-1.56	-1.46	inactive
SIM1	1	-0.439	0.0209	0.197	inactive
PDE11A	1	-0.443	-1.16	-0.821	inactive
CARF	1	-0.866	-0.812	-0.0793	inactive
LOC441162 (retired record)	1	-0.14	-0.648	-0.755	inactive
IGF2R	1	0.0225	0.192	0.126	inactive
NT5DC2	1	0.773	0.193	-0.0441	inactive
MSLNL	1	-1.48	-1.17	-0.93	inactive
LOC440512 (retired record)	1	0.593	0.0658	0.0968	inactive
C10orf55	1	-1.32	-1.03	-1.56	inactive
LRRK2	1	-0.739	0.51	-0.0019	inactive
UBB	1	-1.78	0.609	-2.25	inactive
PPIC	1	-0.705	-0.289	-0.48	inactive
PRRC1	1	2.55	1.63	-0.0776	inactive
ALPI	1	0.351	0.123	0.388	inactive
RC3H1	1	1.62	1.34	-0.166	inactive
LOC440751 (retired record)	1	-1.14	-0.957	-1.33	inactive
INSM1	1	1.27	-0.136	0.412	inactive
NFYC	1	-0.853	-1.58	-0.602	inactive
SRXN1	1	-1.53	-1.02	-0.372	inactive
TNFAIP1	1	-0.409	-1.06	-0.704	inactive
ZFYVE28	1	-0.118	-0.307	0.28	inactive
ADCY2	1	0.698	0.0927	-0.0543	inactive
C5orf24	1	-1.71	0.0426	0.29	inactive
CHST15	1	1.63	0.248	-0.198	inactive
OR2G6	1	-1.79	-1.71	-1.91	inactive
HYCC1	1	3.49	4.75	4.03	active
MYL3	1	-0.221	0.33	-1.3	inactive
DRC4	1	3.44	1.95	2.12	active
LOC388334 (retired record)	1	-1.71	-1.54	-1.33	inactive
LOC440098 (retired record)	1	1.15	0.828	0.863	inactive
HCFC1R1	1	0.649	0.997	0.246	inactive
RAET1G	1	0.655	0.667	0.474	inactive
DDO	1	0.626	0.739	0.786	inactive
YIPF5	1	-0.789	-0.0142	-0.0462	inactive
SPACA5	1	-0.948	-0.951	-1.21	inactive
PPP1R14D	1	-0.661	0.524	-0.0915	inactive
BBS12	1	-1.2	-1.42	-0.809	inactive
LOC389253 (retired record)	1	0.775	0.382	1.28	inactive
MTUS2	1	0.507	-1.63	-0.0548	inactive
TP53I3	1	1.13	1.99	1.44	inactive
SIGLEC12	1	-1.04	-1.57	-0.603	inactive
ATP6V0A2	1	-0.902	-1.17	-0.479	inactive
LOC442669 (retired record)	1	0.957	0.988	0.824	inactive
SLC6A5	1	-1.23	-0.873	-1.03	inactive
CCDC116	1	0.506	0.9	0.329	inactive
KLHL5	1	1.33	-0.731	0.127	inactive
